Data as given in PubChem BioAssay AID1259254 (NCATS, 2017)
Aim: 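Finding genes that stop cells copying their DNA twice in one cycle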 (primary screen). Cells: human HCT116 colorectal cancer cells. Knock-down reagent: single siRNA against human genes. Timing: 3 days. Read-out: 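Imaged Hoechst DNA stain sorts each cell into a cycle phase by DNA amount; per plate, G2 fraction set to 0% for non-targeting and 100% for GMNN siRNA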. Direction: G2 robust z-score: higher = more G2 cells, more excess DNA replication. Active means: 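Active siRNAs have a G2 robust z of 5 or more median absolute deviations over the median, which in these data means about 38% or higher of GMNN control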.
This is an unselected part of about 59,000 deposited reagents. Of all reagents, about 1,550 (2.6%) were called active. 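G2 share is only a proxy for re-replication; each gene was hit by three separate siRNAs, and active genes were retested.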 Reagents against one gene are numbered here. Not all columns of the deposit are shown. No sequences are given here. Not stated in the record: the amount of reagent.

Knock-down of CRLS1 #1 came out at: G2 robust z-score 0.722; inactive.
For CRLS1 #2, the values are G2 robust z-score -0.0377; inactive.
Silencing of CRLS1 #3 gave: G2 robust z-score 3.85; inactive.
Against POPDC1 #1, the values are G2 robust z-score 3.21; inactive.
POPDC1 #2 gave G2 robust z-score -0.188; inactive.
POPDC1 #3 scored G2 robust z-score -0.0919; inactive.
For IGSF10 #1 the deposit lists G2 robust z-score 4.81; inactive.
Silencing of IGSF10 #2 came out at: G2 robust z-score -0.629; inactive.
IGSF10 #3 gave G2 robust z-score -0.712; inactive.
ADCY7 #1 showed G2 robust z-score 1.41; inactive.
ADCY7 #2 scored G2 robust z-score -0.803; inactive.
Knock-down of ADCY7 #3 gave: G2 robust z-score 0.402; inactive.

Not a retest: entries from further up.
IGSF10 #2: G2 robust z-score = -0.629; activity call = inactive
IGSF10 #3: G2 robust z-score = -0.712; activity call = inactive
